Experimental findings from PMC6002036, “Characterization of a non-nudix pyrophosphatase points to interplay between flavin and NAD(H) homeostasis in Saccharomyces cerevisiae” (PLoS ONE, 2018) are described below.

These are yes or no findings as the source states them, for the method shown. In cells and extracts the contact can be indirect. Tags and fused reporters may be left off the sequences shown.

The assay has as its target T1, Fad1p (FAD synthetase), bait or prey fusion strain of the Protein Interactome collection (S. cerevisiae) (UniProt P38913).
T1 sequence: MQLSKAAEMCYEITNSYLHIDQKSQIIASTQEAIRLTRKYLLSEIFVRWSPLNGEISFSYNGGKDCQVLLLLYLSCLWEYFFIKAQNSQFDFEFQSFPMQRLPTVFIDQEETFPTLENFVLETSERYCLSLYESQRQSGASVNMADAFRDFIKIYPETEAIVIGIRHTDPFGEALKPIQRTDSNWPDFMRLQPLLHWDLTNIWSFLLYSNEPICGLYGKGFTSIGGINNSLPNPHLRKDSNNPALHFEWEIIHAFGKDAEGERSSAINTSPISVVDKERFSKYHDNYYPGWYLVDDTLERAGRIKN
The assay can be described thus: split reporter; bait-prey fusion complementation giving methotrexate resistance (method adapted from Tarassov et al.); bait and prey strains mated, diploids spotted onto SD-Lys-Met plates with 200 ug/ml methotrexate.

B1: Fpy1p, bait or prey fusion strain of the Protein Interactome collection (enzyme, UniProt Q03219 1-274)
chain: MVKVTAACIIIGDEVLNGKVVDTNSTFFAKYCFDHGIQLKEIATIGDDETQIVDTVRRLVKNYDFIISTGGIGPTHDDITYECMAKSFNLPCELDEECKERMRHKSDPEARLDADALKAHYQMATMPKGTNVKNYYVCDDLWVPICSISHKMYILPGIPQLFARMLKAFTPTLKKIYNLDKDPREYVRYFVRTHLTESQISKELKLIQDESTKVSEAIKIGSYPHFGMGFNTVSILGEKKDDSYLKSIVNRVVNNLEGEVISSELENKFSNQES
On to B1, for which the binding result is listed as “no binding”.
